PubChem BioAssay AID652243 – Drosophila RNAi Screening Center, 2013
Purpose: 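Fly genes required for human androgen receptor driven transcription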 (primary screen). Cells: Drosophila S2R+ cells. Reagent: long dsRNA against Drosophila genes. Timing: 72 h (48 h, then 24 h hormone). Treatment: synthetic androgen R1881 at 10 nM for 24 h. Read-out: 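Firefly light from an androgen-responsive reporter and Renilla control light per well, raw and unnormalised, for each of two replicates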. Reading the numbers: firefly reporter light: higher = more light from androgen-responsive reporter; Renilla control light: higher = more constitutive control signal (cell number, transfection). Hit rule: 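Hit when the log firefly-to-Renilla ratio dropped or increased by a fixed fold versus the mean of GFP or LacZ controls across duplicate plates; lowering cut given as 1.5 and as 3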. Calls: active = hit: reporter lowered or raised; inactive = no hit.
The screen tested about 24,000 reagents; this is an unselected part of those with a known target gene and a result. Over the whole deposit, 246 (1%) were called active. 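Plates not normalised; calls are printed but the firefly/Renilla ratio behind them is not deposited; fold cut for lowering reported inconsistently.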 Raw values vary from plate to plate and are shown uncorrected. The record does not give: the amount of reagent.

Target gene | DRSC id | firefly reporter light, replicate 1 | firefly reporter light, replicate 2 | Renilla control light, replicate 1 | Renilla control light, replicate 2 | activity call
CG4928 | DRSC19342 | 75895 | 67264 | 4.56e5 | 3.74e5 | inactive
CG4928 | DRSC29007 | 7.17e5 | 6.77e5 | 1.66e6 | 1.49e6 | inactive
CG14074 | DRSC10079 | 1.65e5 | 1.38e5 | 2.03e6 | 2.19e6 | inactive
CG14074 | DRSC29481 | 4.65e5 | 4.21e5 | 7.99e5 | 7.99e5 | inactive
Rh3 | DRSC16822 | 90725 | 92309 | 5.31e5 | 5.98e5 | inactive
ImpL2 | DRSC08666 | 1.20e6 | 4.49e5 | 1.47e6 | 6.08e5 | inactive
ImpL2 | DRSC28691 | 4.01e5 | 5.46e5 | 1.82e6 | 1.63e6 | inactive
mahe | DRSC17755 | 46185 | 61062 | 2.86e5 | 3.15e5 | inactive
mahe | DRSC24030 | 6.77e5 | 6.08e5 | 6.71e5 | 5.99e5 | inactive
tfc | DRSC07953 | 72298 | 81015 | 2.92e5 | 3.91e5 | inactive
tfc | DRSC07954 | 41499 | 1.15e5 | 2.35e5 | 2.99e5 | inactive
tfc | DRSC08626 | 6.45e5 | 6.32e5 | 1.15e6 | 1.15e6 | inactive
tfc | DRSC21704 | 7.09e5 | 7.01e5 | 3.11e6 | 2.32e6 | inactive
tfc | DRSC23750 | 8.58e5 | 8.22e5 | 8.28e5 | 1.00e6 | inactive
ple | DRSC11383 | 50187 | 70140 | 6.63e5 | 9.06e5 | inactive
frtz | DRSC00512 | 87820 | 98494 | 5.59e5 | 7.69e5 | inactive
CG34398 | DRSC01052 | 4.78e5 | 8.45e5 | 1.14e6 | 2.19e6 | inactive
CG34398 | DRSC02511 | 7.15e5 | 5.37e5 | 1.82e6 | 1.74e6 | inactive
CG34398 | DRSC03228 | 1.73e5 | 1.75e5 | 1.47e6 | 1.16e6 | inactive
CG34398 | DRSC23293 | 7.56e5 | 6.05e5 | 9.27e5 | 1.00e6 | inactive
CG5664 | DRSC11782 | 3.81e5 | 4.73e5 | 3.29e6 | 4.54e6 | inactive
SA2 | DRSC08385 | 41238 | 80120 | 7.75e5 | 1.28e6 | inactive
CG9981 | DRSC20225 | 2.05e5 | 1.80e5 | 2.01e6 | 1.60e6 | inactive
Galphas | DRSC04616 | 1.33e6 | 5.03e5 | 2.20e6 | 1.29e6 | inactive
CG2218 | DRSC15428 | 1.35e5 | 92212 | 1.28e6 | 8.80e5 | inactive
CG2218 | DRSC28089 | 2.12e5 | 2.57e5 | 1.50e6 | 1.33e6 | active
asrij | DRSC04175 | 2.51e5 | 2.80e5 | 2.07e6 | 1.28e6 | inactive
CG13692 | DRSC00361 | 1.22e5 | 92650 | 4.43e5 | 5.47e5 | inactive
CG13692 | DRSC28585 | 8.89e5 | 7.98e5 | 2.37e6 | 1.90e6 | inactive
CG5860 | DRSC15896 | 1.47e5 | 88640 | 1.41e6 | 1.07e6 | inactive
CG14829 | DRSC10199 | 1.33e5 | 1.12e5 | 1.57e6 | 1.60e6 | inactive
CG11145 | DRSC06049 | 3.46e5 | 2.64e5 | 2.28e6 | 1.24e6 | inactive
Ccm3 | DRSC15711 | 2.41e5 | 1.57e5 | 2.11e6 | 2.24e6 | inactive
CG15611 | DRSC06563 | 5.83e5 | 7.93e5 | 5.66e5 | 1.09e6 | inactive
CG15611 | DRSC06564 | 72398 | 78462 | 1.37e6 | 1.37e6 | inactive
CG4594 | DRSC02762 | 6.90e5 | 6.52e5 | 1.13e6 | 1.39e6 | inactive
CG18476 | DRSC15281 | 16452 | 46751 | 2.39e5 | 3.26e5 | inactive
CG7377 | DRSC10830 | 2.67e5 | 1.72e5 | 2.23e6 | 1.48e6 | inactive
Mtr3 | DRSC10953 | 1.19e5 | 1.49e5 | 1.68e6 | 1.93e6 | inactive
Mtr3 | DRSC26956 | 4.23e5 | 2.72e5 | 9.29e5 | 5.08e5 | inactive

Hits, of those listed so far:
Target gene | DRSC id | firefly reporter light, replicate 1 | firefly reporter light, replicate 2 | Renilla control light, replicate 1 | Renilla control light, replicate 2 | activity call
CG2218 | DRSC28089 | 2.12e5 | 2.57e5 | 1.50e6 | 1.33e6 | active
